In publication PMC13463607:
No constants are given. Whether binding was seen depends on the method and setting. Binding seen in cells or lysates may run through a third protein. A yes stands for co-enrichment or nearness to the bait. Other partners may have been found. For some assays here: Where a sequence is shown, tags or fusion partners need not be part of it. One block for each molecule: values may come before it.

Chains of the proteins cited; added tags and fusions are not shown.
UniProt Q96GD4: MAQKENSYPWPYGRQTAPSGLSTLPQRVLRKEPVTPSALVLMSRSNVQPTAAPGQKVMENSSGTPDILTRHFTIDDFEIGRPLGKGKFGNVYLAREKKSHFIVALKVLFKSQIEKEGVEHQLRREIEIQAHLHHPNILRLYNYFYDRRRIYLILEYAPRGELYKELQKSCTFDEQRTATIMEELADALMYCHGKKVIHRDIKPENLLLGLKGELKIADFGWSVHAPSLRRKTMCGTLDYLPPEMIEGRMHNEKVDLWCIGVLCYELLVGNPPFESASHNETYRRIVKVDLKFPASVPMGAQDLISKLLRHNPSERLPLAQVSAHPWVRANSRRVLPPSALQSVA
UniProt Q14247: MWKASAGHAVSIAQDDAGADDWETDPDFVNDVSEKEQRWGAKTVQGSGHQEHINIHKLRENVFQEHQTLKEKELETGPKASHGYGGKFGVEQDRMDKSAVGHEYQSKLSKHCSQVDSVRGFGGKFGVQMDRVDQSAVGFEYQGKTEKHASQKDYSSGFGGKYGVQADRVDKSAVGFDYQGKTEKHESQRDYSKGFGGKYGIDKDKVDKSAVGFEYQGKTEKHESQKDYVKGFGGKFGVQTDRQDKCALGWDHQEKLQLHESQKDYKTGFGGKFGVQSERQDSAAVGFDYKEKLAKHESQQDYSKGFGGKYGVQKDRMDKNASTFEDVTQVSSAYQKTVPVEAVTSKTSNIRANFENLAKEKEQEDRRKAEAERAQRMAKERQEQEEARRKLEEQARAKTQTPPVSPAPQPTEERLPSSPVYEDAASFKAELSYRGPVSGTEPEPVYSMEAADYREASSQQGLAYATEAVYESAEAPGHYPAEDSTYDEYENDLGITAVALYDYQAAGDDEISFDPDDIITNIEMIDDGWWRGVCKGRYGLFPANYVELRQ
UniProt Q14155: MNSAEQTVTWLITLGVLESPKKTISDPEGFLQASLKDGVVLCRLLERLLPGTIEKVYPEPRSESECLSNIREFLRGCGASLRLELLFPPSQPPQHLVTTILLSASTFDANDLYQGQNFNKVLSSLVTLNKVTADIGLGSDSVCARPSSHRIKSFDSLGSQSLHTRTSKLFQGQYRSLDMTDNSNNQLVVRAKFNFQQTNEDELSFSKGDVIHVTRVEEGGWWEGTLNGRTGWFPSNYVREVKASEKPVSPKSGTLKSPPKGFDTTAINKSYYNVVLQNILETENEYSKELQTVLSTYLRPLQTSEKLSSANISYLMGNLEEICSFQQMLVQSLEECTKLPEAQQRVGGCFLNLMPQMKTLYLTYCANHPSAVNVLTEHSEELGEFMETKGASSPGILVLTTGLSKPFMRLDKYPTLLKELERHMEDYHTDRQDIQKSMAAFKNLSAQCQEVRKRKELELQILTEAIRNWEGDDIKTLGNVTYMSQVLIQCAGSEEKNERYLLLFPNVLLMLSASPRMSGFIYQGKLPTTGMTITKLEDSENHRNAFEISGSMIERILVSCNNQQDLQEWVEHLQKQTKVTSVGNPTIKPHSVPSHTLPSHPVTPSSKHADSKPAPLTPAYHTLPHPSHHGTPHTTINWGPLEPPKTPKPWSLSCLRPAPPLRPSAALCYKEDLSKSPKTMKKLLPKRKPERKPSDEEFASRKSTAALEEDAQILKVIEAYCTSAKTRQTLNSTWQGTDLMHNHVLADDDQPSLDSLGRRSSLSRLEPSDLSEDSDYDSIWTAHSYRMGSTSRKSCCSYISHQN
UniProt Q9Y2X7: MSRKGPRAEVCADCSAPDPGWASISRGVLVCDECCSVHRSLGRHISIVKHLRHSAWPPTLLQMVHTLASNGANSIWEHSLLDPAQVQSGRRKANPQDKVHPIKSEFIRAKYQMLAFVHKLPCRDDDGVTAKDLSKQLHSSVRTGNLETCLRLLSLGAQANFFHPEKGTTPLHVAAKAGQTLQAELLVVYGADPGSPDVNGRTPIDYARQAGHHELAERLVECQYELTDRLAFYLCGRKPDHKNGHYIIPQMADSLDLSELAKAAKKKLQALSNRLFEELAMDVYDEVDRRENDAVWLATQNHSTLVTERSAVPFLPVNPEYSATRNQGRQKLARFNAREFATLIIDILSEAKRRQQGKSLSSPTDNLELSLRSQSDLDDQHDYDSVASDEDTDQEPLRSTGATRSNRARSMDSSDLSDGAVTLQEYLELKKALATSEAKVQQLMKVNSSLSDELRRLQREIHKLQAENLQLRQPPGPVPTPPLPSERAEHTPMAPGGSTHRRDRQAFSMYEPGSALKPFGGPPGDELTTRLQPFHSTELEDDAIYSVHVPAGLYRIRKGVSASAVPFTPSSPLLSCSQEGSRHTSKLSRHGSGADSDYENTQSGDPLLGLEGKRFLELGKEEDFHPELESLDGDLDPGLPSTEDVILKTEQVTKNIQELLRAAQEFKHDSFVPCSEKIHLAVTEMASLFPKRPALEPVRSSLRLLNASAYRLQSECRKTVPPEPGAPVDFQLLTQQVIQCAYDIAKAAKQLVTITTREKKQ
UniProt Q13418: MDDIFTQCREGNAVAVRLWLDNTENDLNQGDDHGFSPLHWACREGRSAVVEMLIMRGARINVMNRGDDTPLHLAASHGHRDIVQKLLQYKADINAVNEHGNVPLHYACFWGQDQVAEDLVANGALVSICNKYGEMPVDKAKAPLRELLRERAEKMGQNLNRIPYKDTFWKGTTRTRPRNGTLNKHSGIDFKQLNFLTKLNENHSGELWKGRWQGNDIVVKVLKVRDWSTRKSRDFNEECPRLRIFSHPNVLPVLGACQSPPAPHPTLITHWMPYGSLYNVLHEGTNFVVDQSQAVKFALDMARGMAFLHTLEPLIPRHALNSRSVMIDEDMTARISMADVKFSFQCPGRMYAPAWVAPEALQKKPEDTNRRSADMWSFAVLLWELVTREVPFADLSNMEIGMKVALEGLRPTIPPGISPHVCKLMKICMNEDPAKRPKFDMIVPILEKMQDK
UniProt P62328: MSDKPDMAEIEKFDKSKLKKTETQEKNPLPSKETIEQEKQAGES
UniProt Q13177: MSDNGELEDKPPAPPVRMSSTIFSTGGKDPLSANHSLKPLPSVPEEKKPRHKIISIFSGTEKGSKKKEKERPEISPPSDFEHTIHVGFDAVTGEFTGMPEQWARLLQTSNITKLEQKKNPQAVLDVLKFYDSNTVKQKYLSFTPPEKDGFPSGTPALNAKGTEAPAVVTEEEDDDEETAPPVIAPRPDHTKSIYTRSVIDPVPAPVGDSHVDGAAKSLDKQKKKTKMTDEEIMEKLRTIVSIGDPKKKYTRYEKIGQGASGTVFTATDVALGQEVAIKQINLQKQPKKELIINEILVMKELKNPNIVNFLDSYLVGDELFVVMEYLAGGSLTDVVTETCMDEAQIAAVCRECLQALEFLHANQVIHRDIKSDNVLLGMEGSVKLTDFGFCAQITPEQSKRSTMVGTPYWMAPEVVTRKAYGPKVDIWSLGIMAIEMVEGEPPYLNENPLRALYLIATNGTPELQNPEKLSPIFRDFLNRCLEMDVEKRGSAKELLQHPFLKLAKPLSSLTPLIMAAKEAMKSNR

Key:
[1] = molecular target: TurboID aurora B fusion protein (human) (UniProt Q96GD4); assay: proximity labelling; TurboID fusions of aurora B or LMW-PTP lentivirally expressed in GBM43 cells; 10 μM biotin, 37°C, 10 minutes; RIPA lysates; streptavidin magnetic beads, 1 hour at room temperature; mass spectrometry; greater than 2-fold more abundance versus control TurboID cytochrome P450 (aa 1-29) fusion
[2] = molecular target: T1, TurboID LMW-PTP fusion protein (human) (UniProt P24666); assay: as above
T1 sequence: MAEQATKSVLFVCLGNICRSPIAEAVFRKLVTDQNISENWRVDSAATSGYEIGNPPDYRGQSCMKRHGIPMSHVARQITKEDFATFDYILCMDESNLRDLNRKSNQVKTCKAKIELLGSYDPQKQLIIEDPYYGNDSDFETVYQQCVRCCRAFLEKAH

binding [1]: binds
binding [2]: binds
Molecule: cortactin (from UniProt Q14247 1-550)

binding [1]: binds
binding [2]: binds
Molecule: rho guanine nucleotide exchange factor 7 (from UniProt Q14155 1-803)

binding [1]: binds
binding [2]: binds
Molecule: G protein–coupled receptor kinase interactor-1 (from UniProt Q9Y2X7 1-761)

binding [1]: binds
binding [2]: binds
Molecule: integrin-linked kinase (from UniProt Q13418 1-452)

binding [1]: binds
binding [2]: binds
Molecule: thymosin-β4 (from UniProt P62328 1-44)

binding [1]: binds
binding [2]: binds
Molecule: p21 protein-activated kinase 2 (from UniProt Q13177 1-524)

binding [1]: binds
binding [2]: binds
B1: Rac/Cdc42 guanine nucleotide exchange factor 6 (protein, UniProt Q15052 1-776)
chain: MNPEEQIVTWLISLGVLESPKKTICDPEEFLKSSLKNGVVLCKLINRLMPGSVEKFCLDPQTEADCINNINDFLKGCATLQVEIFDPDDLYSGVNFSKVLSTLLAVNKATEDQLSERPCGRSSSLSAANTSQTNPQGAVSSTVSGLQRQSKTVEMTENGSHQLIVKARFNFKQTNEDELSVCKGDIIYVTRVEEGGWWEGTLNGRTGWFPSNYVREIKSSERPLSPKAVKGFETAPLTKNYYTVVLQNILDTEKEYAKELQSLLVTYLRPLQSNNNLSTVEVTSLLGNFEEVCTFQQTLCQALEECSKFPENQHKVGGCLLSLMPHFKSMYLAYCANHPSAVNVLTQHSDELEQFMENQGASSPGILILTTNLSKPFMRLEKYVTLLQELERHMEDTHPDHQDILKAIVAFKTLMGQCQDLRKRKQLELQILSEPIQAWEGEDIKNLGNVIFMSQVMVQYGACEEKEERYLMLFSNVLIMLSASPRMSGFIYQGKIPIAGTVVTRLDEIEGNDCTFEITGNTVERIVVHCNNNQDFQEWLEQLNRLIRGPASCSSLSKTSSSSCSAHSSFSSTGQPRGPLEPPQIIKPWSLSCLRPAPPLRPSAALGYKERMSYILKESSKSPKTMKKFLHKRKTERKPSEEEYVIRKSTAALEEDAQILKVIEAYCTSANFQQGHGSSTRKDSIPQVLLPEEEKLIIEETRSNGQTIMEEKSLVDTVYALKDEVRELKQENKRMKQCLEEELKSRRDLEKLVRRLLKQTDECIRGESSSKTSILP
